Experimental data from publication PMC3325936.
Where a chain is given by its changes, count along the chain named. No constants are given. Whether binding was seen depends on the method and setting. Binding can be weak; no strength is given. Sequences can lack the tags named with a protein. For some of these results: In cells and extracts the contact can be indirect.

Tests used:
[1] = target: T1, MBP:Anillin (608–940) (human) (UniProt Q9NQW6); assay: pull-down; purified MBP- or GST-tagged anillin fragments (200 nM) as bait; lysates of transfected HEK-293 cells; 50 mM Tris pH7.6, 150 mM NaCl, 5 mM MgCl2, 0.5% Triton X-100, 1 mM DTT, 4°C; western blot for Myc; only the target purified
T1 sequence: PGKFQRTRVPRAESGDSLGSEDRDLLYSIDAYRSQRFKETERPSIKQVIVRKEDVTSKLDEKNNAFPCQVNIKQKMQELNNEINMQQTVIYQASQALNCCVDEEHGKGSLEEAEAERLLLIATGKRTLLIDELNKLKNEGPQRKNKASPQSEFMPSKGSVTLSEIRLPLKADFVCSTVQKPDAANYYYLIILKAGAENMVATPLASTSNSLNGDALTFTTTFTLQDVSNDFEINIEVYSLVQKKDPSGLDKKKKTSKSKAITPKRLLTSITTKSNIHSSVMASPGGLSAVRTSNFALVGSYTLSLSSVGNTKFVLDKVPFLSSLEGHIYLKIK

[2] = target: T2, GST:Anillin (608–940) (human) (UniProt Q9NQW6); assay: as above
T2 sequence: T1 sequence

[3] = target: T3, GST:Anillin (890–940) (human) (UniProt Q9NQW6); assay: as above
T3 sequence: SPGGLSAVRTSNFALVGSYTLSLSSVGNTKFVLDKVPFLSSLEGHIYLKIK

[4] = target: T4, GST:Anillin (820–940) (human) (UniProt Q9NQW6); assay: as above
T4 sequence: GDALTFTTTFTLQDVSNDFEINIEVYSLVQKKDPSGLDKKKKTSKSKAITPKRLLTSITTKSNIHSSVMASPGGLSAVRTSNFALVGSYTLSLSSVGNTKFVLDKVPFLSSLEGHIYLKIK

[5] = target: T5, MBP:Anillin (608–1087; AFAINA) (human) (UniProt Q9NQW6); assay: as above
T5 sequence: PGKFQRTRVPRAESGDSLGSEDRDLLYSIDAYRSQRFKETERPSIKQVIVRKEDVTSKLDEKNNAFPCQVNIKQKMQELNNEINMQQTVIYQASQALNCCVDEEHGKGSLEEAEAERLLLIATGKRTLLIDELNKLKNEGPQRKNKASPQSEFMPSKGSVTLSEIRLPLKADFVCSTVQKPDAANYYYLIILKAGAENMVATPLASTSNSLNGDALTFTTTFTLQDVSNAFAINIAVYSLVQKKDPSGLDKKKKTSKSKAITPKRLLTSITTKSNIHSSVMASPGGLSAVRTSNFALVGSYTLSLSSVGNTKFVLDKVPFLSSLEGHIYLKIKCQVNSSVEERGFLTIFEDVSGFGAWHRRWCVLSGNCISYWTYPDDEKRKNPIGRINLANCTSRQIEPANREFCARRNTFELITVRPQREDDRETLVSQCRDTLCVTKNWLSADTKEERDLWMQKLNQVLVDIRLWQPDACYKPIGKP

[6] = target: T6, MBP:Anillin (608–1087) (human) (UniProt Q9NQW6); assay: as above
T6 sequence: T5 sequence with A230D, A232E, A236E

[7] = target: T7, GST: Dm anillin (800–1100; AHD) (Drosophila) (UniProt Q9V4P1); assay: as above
T7 sequence: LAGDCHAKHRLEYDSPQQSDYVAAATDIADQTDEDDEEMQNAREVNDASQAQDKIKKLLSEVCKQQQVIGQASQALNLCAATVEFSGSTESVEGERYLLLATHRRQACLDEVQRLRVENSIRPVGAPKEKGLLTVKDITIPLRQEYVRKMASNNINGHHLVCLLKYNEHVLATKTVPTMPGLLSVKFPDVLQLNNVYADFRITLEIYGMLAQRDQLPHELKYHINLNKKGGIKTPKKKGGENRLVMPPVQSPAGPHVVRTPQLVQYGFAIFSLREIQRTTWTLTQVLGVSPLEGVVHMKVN

[8] = target: T8, MBP:Anillin (671–772) (human) (UniProt Q9NQW6); assay: as above
T8 sequence: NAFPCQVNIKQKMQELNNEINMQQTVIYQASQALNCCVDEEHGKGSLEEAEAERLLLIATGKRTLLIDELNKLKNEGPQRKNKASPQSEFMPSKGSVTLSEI

[9] = target: T9, MBP:Anillin (772–940) (human) (UniProt Q9NQW6); assay: as above
T9 sequence: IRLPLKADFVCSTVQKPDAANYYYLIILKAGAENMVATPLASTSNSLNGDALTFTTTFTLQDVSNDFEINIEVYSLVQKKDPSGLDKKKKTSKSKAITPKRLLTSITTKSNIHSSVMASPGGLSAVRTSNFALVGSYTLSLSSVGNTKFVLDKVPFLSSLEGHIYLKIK

[10] = target: T1, MBP:Anillin (608–940) (human); assay: pull-down; in vitro binding of purified recombinant proteins: cleaved Ect2 fragments (0.5 µg and 1.5 µg) in solution with 5 µg MBP:anillin (AHD) on beads, soluble MBP included; 150 µL of 50 mM Tris pH7.6, 150 mM NaCl, 5 mM MgCl2, 0.5% Triton X-100; room temperature 1 hour or 4°C 2 hours; Coomassie-stained gels; both purified

Substance | binding [1] | binding [2] | further results
Myc:Ect2 (1–227) (human) (domain or fragment) | no binding (tested: 200 nM) |  | 
Myc:Ect2 (1–883) (human) | binds | binds | 
Myc:Ect2 (421–774) (human) (domain or fragment) | binds |  | 
Myc:Ect2 (622–883) (human) (domain or fragment) | binds |  | binding [8]: binds weakly; binding [9]: binds
recombinant, cleaved Ect2 fragment E4 (DH+PH domains) (human) (domain or fragment) |  |  | binding [10]: binds weakly

More lines, main results first:

binding [1] | binding [2] | Substance | further results
no binding (tested: 200 nM) | no binding (tested: 200 nM) | Myc:Ect2 (1–420) (human) (domain or fragment) | 
no binding (tested: 200 nM) |  | Myc:Ect2 (421–621) (human) (domain or fragment) | 
binds | binds | Myc:Ect2 (421–883) (human) (domain or fragment) | binding [3]: binds; binding [4]: binds; binding [5]: binds; binding [6]: binds; binding [7]: binds weakly
binds |  | Myc:Ect2 (622–774) (human) (domain or fragment) | 
no binding (tested: 200 nM) |  | Myc:Ect2 (775–883) (human) (domain or fragment) | 
 | no binding (tested: 200 nM) | Myc:Pebble (370–853; C-term) (Drosophila) (domain or fragment) | binding [7]: no binding (tested: 200 nM)
